{
  "source": "patent US20260209370A1",
  "about": "(RADIANT BIOTHERAPEUTICS, published 2026)",
  "binders": {"B1": {"name": "AG10058 IgG (IgG4; parent IgG of Fab #3) (antibody, V domains shown)", "VH": "EVQLVESGGGLVQPGGSLRLSCAASGFSLSTSGVGVGWIRQAPGKGLEWLALIDWDDDKYYSPSLKSRLTISRDNSKNTLYLQLNSLRAEDTAVYYCARGGSDTVLGDWFAYWGQGTLVTVSS", "VL": "DIQLTQSPSSLSASVGDRVTITCRASQSVSPYLAWYQQKPGKAPKLLIYDASSLESGVPSRFSGSGSGTDFTLTISSLQPEDFATYYCQQGYSLWTFGQGTKVEIK", "notes": "also called Fab #3 IgG"}},
  "molecular_target": "recombinant cynomolgus monkey 4-1BB protein (cynomolgus monkey)",
  "assay": "ELISA, plates coated with recombinant 4-1BB, detection with goat α-human Fcγ-HRP",
  "note": "No constants are given. Whether binding was seen depends on the method and setting. Binding calls can cover weak binding; strength is not graded here.",
  "data": [
    {"binder": "B1", "values": [
      {"measurement": "binding", "value": "binds"}
    ]}
  ]
}
